According to the supplement of paper PMC10849652:
The other results are listed elsewhere or left out.

The chains behind the UniProt entries cited, without tags or fusion partners. Where a name states a change or a piece, a line headed by the entry shows the natural chain unless it says otherwise.
UniProt O00217, whole entry, looked up: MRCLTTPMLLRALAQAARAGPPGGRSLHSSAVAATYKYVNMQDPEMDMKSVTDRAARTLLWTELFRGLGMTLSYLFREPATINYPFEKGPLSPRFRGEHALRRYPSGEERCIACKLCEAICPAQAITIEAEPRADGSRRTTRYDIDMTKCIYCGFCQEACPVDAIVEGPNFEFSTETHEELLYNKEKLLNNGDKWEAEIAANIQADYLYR
UniProt Q96PY6: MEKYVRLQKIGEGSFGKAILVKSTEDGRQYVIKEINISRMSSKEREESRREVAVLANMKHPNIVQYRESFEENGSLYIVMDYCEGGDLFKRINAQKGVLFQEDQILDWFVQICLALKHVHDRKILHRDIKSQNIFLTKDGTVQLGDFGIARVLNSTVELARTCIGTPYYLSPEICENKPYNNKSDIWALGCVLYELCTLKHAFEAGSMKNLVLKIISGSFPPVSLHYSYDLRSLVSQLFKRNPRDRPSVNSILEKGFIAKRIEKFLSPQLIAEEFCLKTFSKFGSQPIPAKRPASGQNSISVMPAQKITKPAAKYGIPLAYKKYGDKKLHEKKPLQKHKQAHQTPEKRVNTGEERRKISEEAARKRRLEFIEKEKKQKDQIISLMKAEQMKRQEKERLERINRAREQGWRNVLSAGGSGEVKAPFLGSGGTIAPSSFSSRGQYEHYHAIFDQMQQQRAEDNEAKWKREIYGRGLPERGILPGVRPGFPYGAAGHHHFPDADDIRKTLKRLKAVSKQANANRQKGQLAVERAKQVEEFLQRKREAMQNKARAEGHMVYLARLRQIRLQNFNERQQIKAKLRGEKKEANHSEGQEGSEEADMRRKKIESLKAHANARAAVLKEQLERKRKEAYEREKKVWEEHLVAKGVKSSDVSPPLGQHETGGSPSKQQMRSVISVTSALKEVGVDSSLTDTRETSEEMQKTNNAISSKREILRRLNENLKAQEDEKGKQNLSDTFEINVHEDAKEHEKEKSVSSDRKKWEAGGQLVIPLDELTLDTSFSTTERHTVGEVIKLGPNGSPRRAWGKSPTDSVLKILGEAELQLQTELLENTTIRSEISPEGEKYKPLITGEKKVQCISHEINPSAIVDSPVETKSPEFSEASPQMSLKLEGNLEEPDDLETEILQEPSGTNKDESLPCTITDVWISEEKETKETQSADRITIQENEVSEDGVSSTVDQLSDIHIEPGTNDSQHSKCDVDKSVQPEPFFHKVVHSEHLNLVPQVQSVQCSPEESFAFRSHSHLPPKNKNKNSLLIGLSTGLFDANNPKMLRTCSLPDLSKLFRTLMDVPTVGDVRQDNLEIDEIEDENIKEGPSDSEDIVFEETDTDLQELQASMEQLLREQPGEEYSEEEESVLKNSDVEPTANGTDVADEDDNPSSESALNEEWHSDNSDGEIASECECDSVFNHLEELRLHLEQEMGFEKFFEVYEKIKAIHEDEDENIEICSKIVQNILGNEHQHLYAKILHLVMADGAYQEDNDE
UniProt Q13952: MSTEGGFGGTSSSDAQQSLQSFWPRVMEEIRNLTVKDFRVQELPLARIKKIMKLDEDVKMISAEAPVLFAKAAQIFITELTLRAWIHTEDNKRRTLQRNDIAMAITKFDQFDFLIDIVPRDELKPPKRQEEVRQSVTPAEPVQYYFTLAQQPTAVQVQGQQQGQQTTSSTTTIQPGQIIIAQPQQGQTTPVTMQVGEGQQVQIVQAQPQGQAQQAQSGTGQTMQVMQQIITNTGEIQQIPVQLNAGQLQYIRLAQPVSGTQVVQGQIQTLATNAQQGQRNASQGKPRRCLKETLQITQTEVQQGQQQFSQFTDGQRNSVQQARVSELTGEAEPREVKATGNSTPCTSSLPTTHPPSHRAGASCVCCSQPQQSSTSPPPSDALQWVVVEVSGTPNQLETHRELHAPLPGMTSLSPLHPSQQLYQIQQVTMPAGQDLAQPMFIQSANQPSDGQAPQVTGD
UniProt Q16795, whole entry, looked up: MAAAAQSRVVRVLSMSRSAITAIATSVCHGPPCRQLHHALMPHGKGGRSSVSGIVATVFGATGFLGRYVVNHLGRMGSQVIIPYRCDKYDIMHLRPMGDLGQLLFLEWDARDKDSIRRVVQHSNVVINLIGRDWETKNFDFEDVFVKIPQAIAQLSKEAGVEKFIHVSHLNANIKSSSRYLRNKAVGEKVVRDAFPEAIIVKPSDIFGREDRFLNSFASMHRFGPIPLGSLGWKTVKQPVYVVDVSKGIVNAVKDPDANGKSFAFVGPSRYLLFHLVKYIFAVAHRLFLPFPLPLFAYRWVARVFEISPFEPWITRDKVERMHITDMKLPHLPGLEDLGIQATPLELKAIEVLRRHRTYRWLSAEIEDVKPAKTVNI
UniProt O43920, whole entry, looked up: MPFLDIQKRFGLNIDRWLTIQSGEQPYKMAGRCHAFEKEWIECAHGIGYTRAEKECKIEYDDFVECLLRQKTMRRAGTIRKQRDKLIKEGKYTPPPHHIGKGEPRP
UniProt Q9NXR1: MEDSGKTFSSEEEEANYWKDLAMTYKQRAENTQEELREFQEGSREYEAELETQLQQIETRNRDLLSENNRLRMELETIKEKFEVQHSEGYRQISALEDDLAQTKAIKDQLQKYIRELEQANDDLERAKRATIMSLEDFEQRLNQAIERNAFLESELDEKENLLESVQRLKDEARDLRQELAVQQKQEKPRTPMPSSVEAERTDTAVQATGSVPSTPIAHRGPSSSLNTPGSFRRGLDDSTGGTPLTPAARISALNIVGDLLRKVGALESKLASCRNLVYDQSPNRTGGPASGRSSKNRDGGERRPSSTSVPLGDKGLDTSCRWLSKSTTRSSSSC
UniProt Q9BYT8, whole entry, looked up: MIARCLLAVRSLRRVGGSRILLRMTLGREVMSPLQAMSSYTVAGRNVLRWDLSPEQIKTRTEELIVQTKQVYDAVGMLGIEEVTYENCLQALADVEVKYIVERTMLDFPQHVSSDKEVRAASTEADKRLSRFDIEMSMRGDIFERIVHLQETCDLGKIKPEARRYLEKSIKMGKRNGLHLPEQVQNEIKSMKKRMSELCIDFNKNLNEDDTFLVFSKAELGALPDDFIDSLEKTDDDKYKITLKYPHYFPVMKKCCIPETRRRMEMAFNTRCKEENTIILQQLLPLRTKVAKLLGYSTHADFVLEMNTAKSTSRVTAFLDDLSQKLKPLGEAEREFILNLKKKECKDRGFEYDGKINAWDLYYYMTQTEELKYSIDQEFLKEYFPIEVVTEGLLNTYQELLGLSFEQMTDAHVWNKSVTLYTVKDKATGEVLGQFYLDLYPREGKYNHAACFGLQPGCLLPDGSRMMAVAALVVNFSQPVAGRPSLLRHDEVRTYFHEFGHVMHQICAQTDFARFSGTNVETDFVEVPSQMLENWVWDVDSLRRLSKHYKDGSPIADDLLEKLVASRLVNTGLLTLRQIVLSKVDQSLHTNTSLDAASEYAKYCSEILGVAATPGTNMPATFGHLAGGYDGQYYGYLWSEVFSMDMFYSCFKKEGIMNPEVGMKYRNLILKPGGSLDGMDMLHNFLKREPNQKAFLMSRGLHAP
UniProt Q96PU5: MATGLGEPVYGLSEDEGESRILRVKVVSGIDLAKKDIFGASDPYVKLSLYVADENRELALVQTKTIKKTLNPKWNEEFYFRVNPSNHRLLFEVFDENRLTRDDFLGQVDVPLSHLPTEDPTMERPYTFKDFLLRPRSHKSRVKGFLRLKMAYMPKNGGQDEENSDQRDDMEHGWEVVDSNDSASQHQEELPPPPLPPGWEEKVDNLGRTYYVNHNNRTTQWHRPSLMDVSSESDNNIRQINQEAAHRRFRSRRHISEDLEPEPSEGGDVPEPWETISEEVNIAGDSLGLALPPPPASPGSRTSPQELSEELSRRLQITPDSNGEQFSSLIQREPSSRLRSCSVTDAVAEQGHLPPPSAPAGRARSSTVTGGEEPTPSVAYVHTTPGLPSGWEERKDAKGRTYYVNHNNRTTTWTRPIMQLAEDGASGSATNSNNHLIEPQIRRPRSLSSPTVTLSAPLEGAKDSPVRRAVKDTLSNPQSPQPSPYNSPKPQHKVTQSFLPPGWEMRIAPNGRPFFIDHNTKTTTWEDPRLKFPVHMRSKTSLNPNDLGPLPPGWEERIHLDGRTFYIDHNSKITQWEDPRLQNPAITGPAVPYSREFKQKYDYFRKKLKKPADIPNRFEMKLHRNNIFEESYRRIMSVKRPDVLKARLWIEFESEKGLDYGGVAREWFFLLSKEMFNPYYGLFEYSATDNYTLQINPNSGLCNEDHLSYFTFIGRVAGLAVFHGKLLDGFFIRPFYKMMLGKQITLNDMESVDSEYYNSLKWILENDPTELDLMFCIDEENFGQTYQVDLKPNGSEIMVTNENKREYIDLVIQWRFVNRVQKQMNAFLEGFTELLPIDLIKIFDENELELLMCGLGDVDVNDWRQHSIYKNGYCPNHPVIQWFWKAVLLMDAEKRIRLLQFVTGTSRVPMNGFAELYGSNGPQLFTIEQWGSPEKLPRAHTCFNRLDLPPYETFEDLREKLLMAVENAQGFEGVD
UniProt Q9P0J0, whole entry, looked up: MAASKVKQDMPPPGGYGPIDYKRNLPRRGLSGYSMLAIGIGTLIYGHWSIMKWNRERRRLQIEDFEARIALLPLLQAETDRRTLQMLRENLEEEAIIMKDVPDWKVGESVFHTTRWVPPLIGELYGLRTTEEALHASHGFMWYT
UniProt Q8NC96: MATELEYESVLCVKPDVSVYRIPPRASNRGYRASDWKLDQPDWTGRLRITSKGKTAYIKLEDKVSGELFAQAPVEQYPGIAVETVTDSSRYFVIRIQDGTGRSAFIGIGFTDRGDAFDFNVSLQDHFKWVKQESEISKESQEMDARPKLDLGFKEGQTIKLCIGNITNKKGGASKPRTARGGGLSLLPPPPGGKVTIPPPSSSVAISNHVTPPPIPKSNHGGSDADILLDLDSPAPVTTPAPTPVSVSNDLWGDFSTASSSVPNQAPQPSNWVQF
UniProt Q16718, whole entry, looked up: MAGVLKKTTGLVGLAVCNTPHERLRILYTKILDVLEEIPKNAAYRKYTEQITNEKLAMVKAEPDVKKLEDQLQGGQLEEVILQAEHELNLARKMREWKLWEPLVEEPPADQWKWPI
UniProt Q9BU61: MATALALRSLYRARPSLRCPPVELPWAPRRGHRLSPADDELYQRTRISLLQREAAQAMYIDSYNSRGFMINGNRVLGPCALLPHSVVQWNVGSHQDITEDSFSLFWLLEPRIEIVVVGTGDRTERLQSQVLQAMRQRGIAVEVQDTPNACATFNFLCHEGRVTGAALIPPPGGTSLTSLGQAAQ
UniProt O00483, whole entry, looked up: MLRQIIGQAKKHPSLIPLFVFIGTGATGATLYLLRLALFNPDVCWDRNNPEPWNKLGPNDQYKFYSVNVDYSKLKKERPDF
UniProt Q8NBF2: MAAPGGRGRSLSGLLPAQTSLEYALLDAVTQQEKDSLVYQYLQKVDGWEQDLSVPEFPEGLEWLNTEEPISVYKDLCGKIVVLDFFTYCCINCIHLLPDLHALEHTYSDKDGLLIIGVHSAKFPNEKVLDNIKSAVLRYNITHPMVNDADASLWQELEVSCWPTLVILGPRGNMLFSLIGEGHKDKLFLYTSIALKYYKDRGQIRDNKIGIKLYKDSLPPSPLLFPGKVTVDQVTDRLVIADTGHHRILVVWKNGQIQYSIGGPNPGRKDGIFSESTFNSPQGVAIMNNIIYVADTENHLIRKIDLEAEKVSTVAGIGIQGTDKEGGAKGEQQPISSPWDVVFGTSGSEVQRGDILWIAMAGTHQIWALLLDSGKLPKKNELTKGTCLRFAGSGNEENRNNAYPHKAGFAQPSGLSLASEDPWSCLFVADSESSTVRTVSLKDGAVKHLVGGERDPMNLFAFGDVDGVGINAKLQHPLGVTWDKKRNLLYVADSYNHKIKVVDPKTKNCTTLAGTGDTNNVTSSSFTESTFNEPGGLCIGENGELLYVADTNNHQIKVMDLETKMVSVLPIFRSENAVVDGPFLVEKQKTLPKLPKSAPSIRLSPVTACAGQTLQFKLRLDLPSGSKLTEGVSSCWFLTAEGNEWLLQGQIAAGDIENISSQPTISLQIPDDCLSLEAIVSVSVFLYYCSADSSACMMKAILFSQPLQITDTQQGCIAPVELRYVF
UniProt Q9GZM8: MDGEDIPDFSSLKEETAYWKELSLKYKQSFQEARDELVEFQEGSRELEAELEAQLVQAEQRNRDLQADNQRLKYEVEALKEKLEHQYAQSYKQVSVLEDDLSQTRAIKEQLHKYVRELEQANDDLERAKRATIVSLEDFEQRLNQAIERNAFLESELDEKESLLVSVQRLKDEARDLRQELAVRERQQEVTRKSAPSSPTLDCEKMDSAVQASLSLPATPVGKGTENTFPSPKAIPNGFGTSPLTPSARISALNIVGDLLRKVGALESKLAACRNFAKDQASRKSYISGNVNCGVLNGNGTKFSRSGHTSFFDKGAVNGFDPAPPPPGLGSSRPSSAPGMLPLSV

What was measured:
Experiment in all cases: log2 fold change, soluble protein after heating vs DMSO (PISA); higher = thermal stabilisation; K562 lysate, 10 uM; active = over 0.2 and 3.5 SD of the protein, either way, in both replicates (recomputed)
[1] = compound: CS(=O)(=O)CCNCc1ccc(-c2ccc3ncnc(Nc4ccc(OCc5cccc(F)c5)c(Cl)c4)c3c2)o1 [lapatinib]
Outline: (§1)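 Dounce homogenisation of K562 pellets in PBS pH 7.4 with 1 mM MgCl2 produced a crude extract, used at 1 mg/mL protein. Exposure to 10 μM compound lasted 30 min, and aliquots were then heated for 3 min across 48°C-58°C, pooled and brought to 0.5% NP-40 at 4°C. The supernatant after 21,000xg for 90 min was quantified by TMTpro 16plex LC-MS/MS with channel sums equalised. Duplicate values are given as log-two fold change in thermal stability relative to solvent controls.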

[2] = compound: CS(=O)(=O)N1CCN(Cc2cc3nc(-c4cccc5[nH]ncc45)nc(N4CCOCC4)c3s2)CC1 [pictilisib]
Outline: as §1

[3] = compound: C[C@@H](Oc1cc(-c2cnn(C3CCNCC3)c2)cnc1N)c1c(Cl)ccc(F)c1Cl [crizotinib]
Outline: as §1

[4] = compound: C[C@H](C1=CC=C(C=C1)C(=O)NC2=C3C=CNC3=NC=C2)N
Outline: as §1

[5] = compound: C[C@H](Nc1ncnc2nc[nH]c12)c1cc2cccc(Cl)c2c(=O)n1-c1ccccc1 [duvelisib]
Outline: as §1

[6] = compound: Cc1cc(Nc2cc(CN3CCOCC3)c3nc(C)c(Cc4ccc(Cl)cc4F)n3n2)n[nH]1 [gandotinib]
Outline: as §1

[7] = compound: Cc1cc(Nc2cc(N3CCN(C)CC3)nc(Sc3ccc(NC(=O)C4CC4)cc3)n2)n[nH]1 [tozasertib]
Outline: as §1

[8] = compound: Cc1ccc(-n2nc(C(C)(C)C)cc2NC(=O)Nc2ccc(OCCN3CCOCC3)c3ccccc23)cc1 [doramapimod]
Outline: as §1

[9] = compound: Cc1ccc(NC(=O)c2ccc(CN3CC[C@H](N(C)C)C3)c(C(F)(F)F)c2)cc1Nc1nccc(-c2cncnc2)n1 [bafetinib]
Outline: as §1

[10] = compound: Cc1cccc(CC(=O)N2CCc3c2ccc(-c2cn(C)c4ncnc(N)c24)c3F)n1
Outline: as §1

[11] = compound: Cc1cn(-c2cc(NC(=O)c3ccc(C)c(Nc4nccc(-c5cccnc5)n4)c3)cc(C(F)(F)F)c2)cn1 [nilotinib]
Outline: as §1

[12] = compound: Cc1nc(Nc2n[nH]c3c2CN(C(=O)N[C@H](CN(C)C)c2ccccc2)C3(C)C)c2sccc2n1
Outline: as §1

[13] = compound: Cc1nc(Nc2ncc(C(=O)Nc3c(C)cccc3Cl)s2)cc(N2CCN(CCO)CC2)n1 [dasatinib]
Outline: as §1

[14] = compound: Cc1ncc(-c2ccnc(Nc3ccc(S(C)(=O)=O)cc3)n2)n1C(C)C
Outline: as §1

[15] = compound: Cn1cc(-c2ccc3c(c2)CCN3C(=O)Cc2cccc(C(F)(F)F)c2)c2c(N)ncnc21
Outline: as §1

[16] = compound: Cn1cc(CNCC2CCN(c3ncc(C(=O)NO)cn3)CC2)c2ccccc21 [quisinostat]
Outline: as §1

[17] = compound: Cn1cncc1[C@@](N)(c1ccc(Cl)cc1)c1ccc2c(c1)c(-c1cccc(Cl)c1)cc(=O)n2C [tipifarnib]
Outline: as §1

[18] = compound: NC(=O)Nc1cc(-c2cccc(F)c2)sc1C(=O)N[C@H]1CCCNC1
Outline: as §1

[19] = compound: NC(=O)c1cnc(N[C@@H]2CCCC[C@@H]2N)nc1Nc1cccc(-n2nccn2)c1
Outline: as §1

[20] = compound: NC1(c2ccc(-c3nc4ccn5c(=O)[nH]nc5c4cc3-c3ccccc3)cc2)CCC1
Outline: as §1

Measured: log2 fold change

NDUFS8 (UniProt O00217)
inactive: [1] -0.046 | [2] 0.011 | [3] -0.043 | [4] 0.085 | [5] 0.01 | [6] -0.164 | [7] 0.034 | [8] 0.007 | [9] 0.026 | [10] 0.006 | [11] 0 | [12] 0.027 | [13] 0.022 | [14] -0.005 | [15] 0.068 | [16] 0.018 | [17] -0.003 | [18] 0.023 | [19] 0.026 | [20] 0.072

NEK1 isoform 3 (UniProt Q96PY6)
inactive: [1] 0.152 | [2] -0.022 | [3] -0.126 | [4] -0.009 | [5] 0.004 | [6] -0.022 | [7] -0.013 | [8] -0.054 | [9] -0.011 | [10] 0.008 | [11] 0.031 | [12] -0.077 | [13] -0.004 | [14] 0.008 | [15] -0.032 | [16] -0.062 | [17] 0.039 | [18] 0.047 | [19] 0.123 | [20] -0.003

NFYC (UniProt Q13952)
inactive: [1] 0.019 | [2] 0.046 | [3] 0.017 | [4] -0.016 | [5] 0.008 | [6] 0 | [7] 0.067 | [8] 0.037 | [9] 0.04 | [10] 0.064 | [11] -0.021 | [12] 0.016 | [13] 0.024 | [14] -0.017 | [15] 0.006 | [16] -0.001 | [17] -0.02 | [18] 0.019 | [19] 0.037 | [20] 0.01

NDUFA9 (UniProt Q16795)
inactive: [1] -0.049 | [2] 0.004 | [3] -0.016 | [4] 0.04 | [5] -0.06 | [6] -0.005 | [7] 0.074 | [8] -0.063 | [9] 0.041 | [10] 0.029 | [11] 0.03 | [12] 0.028 | [13] 0.023 | [14] 0.054 | [15] 0.041 | [16] 0.078 | [17] 0.014 | [18] -0.061 | [19] 0.042 | [20] 0.094

NDUFS5 (UniProt O43920)
inactive: [1] -0.011 | [2] -0.048 | [3] 0.003 | [4] 0.021 | [5] -0.037 | [6] -0.02 | [7] 0.046 | [8] 0.004 | [9] 0.013 | [10] -0.001 | [11] 0.011 | [12] -0.029 | [13] 0.015 | [14] 0.012 | [15] -0.031 | [16] -0.044 | [17] 0.011 | [18] 0.042 | [19] -0.007 | [20] 0.047

NDE1 isoform 1 (UniProt Q9NXR1)
inactive: [1] 0.009 | [2] -0.034 | [3] 0.063 | [4] -0.052 | [5] 0.034 | [6] 0.086 | [7] -0.025 | [8] 0.018 | [9] -0.021 | [10] 0.048 | [11] 0.046 | [12] 0.005 | [13] 0.019 | [14] -0.011 | [15] 0.039 | [16] -0.023 | [17] -0.014 | [18] -0.02 | [19] 0.035 | [20] -0.028

NLN (UniProt Q9BYT8)
inactive: [1] -0.002 | [2] -0.021 | [3] 0.002 | [4] 0.078 | [5] 0.016 | [6] -0.06 | [7] 0.007 | [8] 0.021 | [9] -0.032 | [10] -0.069 | [11] 0.029 | [12] 0 | [13] 0.004 | [14] -0.002 | [15] -0.001 | [16] -0.006 | [17] 0.002 | [18] -0.01 | [19] -0.01 | [20] 0

NEDD4L (UniProt Q96PU5)
inactive: [1] -0.026 | [2] -0.026 | [3] -0.026 | [4] -0.024 | [5] -0.04 | [6] -0.056 | [7] -0.001 | [8] 0.097 | [9] 0.005 | [10] 0.024 | [11] 0.033 | [12] 0.042 | [13] -0.04 | [14] -0.037 | [15] 0.023 | [16] -0.009 | [17] 0.025 | [18] 0.026 | [19] 0.022 | [20] 0.073

NDUFA13 (UniProt Q9P0J0)
inactive: [1] -0.042 | [2] -0.021 | [3] -0.008 | [4] -0.019 | [5] -0.018 | [6] -0.004 | [7] -0.02 | [8] 0.002 | [9] -0.02 | [10] 0.03 | [11] -0.014 | [12] -0.024 | [13] -0.066 | [14] 0.033 | [15] -0.038 | [16] 0.098 | [17] 0.021 | [18] -0.027 | [19] -0.004 | [20] 0.004

NECAP1 (UniProt Q8NC96)
inactive: [1] -0.009 | [2] -0.056 | [3] -0.056 | [4] -0.108 | [5] -0.01 | [6] 0.139 | [7] 0.023 | [8] 0.014 | [9] -0.029 | [10] 0.068 | [11] -0.013 | [12] -0.041 | [13] 0.006 | [14] -0.012 | [15] 0.041 | [16] -0.18 | [17] 0.001 | [18] 0.025 | [19] 0.011 | [20] -0.003

NDUFA5 (UniProt Q16718)
inactive: [1] 0.085 | [2] 0.036 | [3] -0.01 | [4] 0.113 | [5] 0 | [6] -0.104 | [7] 0.065 | [8] -0.009 | [9] 0.028 | [10] -0.01 | [11] 0.071 | [12] 0.05 | [13] 0.035 | [14] 0.09 | [15] 0.026 | [16] 0.015 | [17] 0.04 | [18] -0.039 | [19] -0.028 | [20] 0.051

NDUFAF3 (UniProt Q9BU61)
inactive: [1] -0.017 | [2] 0.042 | [3] -0.037 | [4] -0.034 | [5] -0.033 | [6] -0.083 | [7] 0.014 | [8] 0.037 | [9] -0.023 | [10] 0.094 | [11] -0.03 | [12] 0.009 | [13] -0.04 | [14] 0.053 | [15] 0.005 | [16] -0.038 | [17] 0.01 | [18] -0.003 | [19] 0.007 | [20] 0.044

NDUFA4 (UniProt O00483)
active: [6] -0.294
inactive: [1] 0.124 | [2] 0.017 | [3] 0.02 | [4] 0.009 | [5] 0.059 | [7] -0.01 | [8] 0.02 | [9] 0 | [10] -0.026 | [11] 0.062 | [12] 0.058 | [13] 0.043 | [14] 0.16 | [15] -0.007 | [16] 0.104 | [17] 0.031 | [18] -0.065 | [19] 0.08 | [20] 0.019

NFKBIB (UniProt Q15653)
inactive: [1] 0.093 | [2] -0.011 | [3] -0.055 | [5] 0.004 | [6] 0.095 | [7] -0.024 | [8] 0.024 | [9] -0.049 | [10] 0.127 | [11] -0.004 | [12] -0.015 | [13] -0.042 | [14] 0.052 | [15] 0.043 | [16] -0.062 | [17] 0.059 | [18] 0.025 | [19] 0.004 | [20] -0.08
active: [4] -0.36

NHLRC2 (UniProt Q8NBF2)
inactive: [1] -0.025 | [2] -0.021 | [3] -0.025 | [4] -0.071 | [5] -0.009 | [6] 0.005 | [7] -0.005 | [8] 0.011 | [9] -0.031 | [10] 0.098 | [11] -0.002 | [12] 0.005 | [13] -0.018 | [14] 0 | [15] -0.008 | [16] -0.024 | [17] -0.011 | [18] 0.013 | [19] 0.006 | [20] -0.039

NDEL1 isoform 2 (UniProt Q9GZM8)
inactive: [1] 0.007 | [2] 0.012 | [3] 0.051 | [4] 0.14 | [5] -0.023 | [6] 0.039 | [7] -0.024 | [8] 0.034 | [9] -0.041 | [10] -0.041 | [11] 0.038 | [12] -0.042 | [13] 0.032 | [14] -0.021 | [15] 0.071 | [16] -0.041 | [17] 0.038 | [18] 0.036 | [19] -0.034 | [20] 0.035
